# PubChem BioAssay AID686943 – Drosophila RNAi Screening Center, 2013
# Screen: 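Search across the genome for regulators of signalling from receptor tyrosine kinase to ERK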 (primary screen)
# System: Drosophila S2R+ haemocyte-like cells expressing YFP-tagged ERK (Rolled)
# Reagents: long dsRNA against Drosophila genes
# Conditions: insulin stimulation versus unstimulated cells; dose and duration not given
# Measurement: 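Antibody staining for doubly phosphorylated ERK divided by ERK-YFP signal, as plate z-scores, in insulin-treated and untreated cells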
# Direction: replicate 1, z-score of dpERK with insulin and replicate 2, z-score of dpERK with insulin: higher = more active ERK per ERK-YFP after insulin; replicate 1, z-score of dpERK under basal conditions: higher = more basal active ERK per ERK-YFP; replicate 1, z-score of ERK-YFP with insulin: higher = more YFP-tagged ERK signal
# The deposit covers about 23,000 reagents; this is an unselected part of those that have a named target and a result. 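Extra replicates exist only for a retested subset of genes; insulin dose and duration not given; both raised and lowered dpERK matter.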 Reagents against one gene are numbered here. A plus sign joins genes that one reagent is predicted to hit. Not stated in the record: the amount of reagent, the time to read-out.
gene,reagent no.,"replicate 1, z-score of dpERK with insulin","replicate 2, z-score of dpERK with insulin","replicate 1, z-score of dpERK under basal conditions","replicate 1, z-score of ERK-YFP with insulin"
CG30345,1,0.03,0.33,-0.23,-0.01
hpRNA:CR18854 + IP3K1,1,1.29,1.17,2.36,-0.42
CG32655,1,-0.16,-0.31,1.58,0.38
CG43064,1,-0.31,0.31,1.16,-0.26
Ran-like,1,0.36,-0.53,0.67,0.51
CG10086,1,0.28,1.06,-1.25,-0.62
CtsL4 (Cathepsin L4),1,-0.33,0.21,-1.6,2.58
ringer (ringmaker),1,0.26,-0.87,0.4,-0.9
CG9948,1,-0.05,0.08,-0.2,-0.11
eIF4E4 (eukaryotic translation initiation factor 4E4),1,-1.41,-2.01,-0.41,0.15
Tnpo (Transportin),1,-0.28,0.04,-1.12,-0.89
RpS26 (Ribosomal protein S26),1,-3.85,0.15,-2.1,-2.3
yellow-e3,1,1.19,0.02,0.13,-0.28
lncRNA:CR32835 (long non-coding RNA:CR32835),1,1.42,-0.07,-1.27,-0.78
Mpp6 (M-phase phosphoprotein 6),1,-0.17,0.85,-1.24,-0.19
CG42854,1,-0.75,-0.51,-2.64,0.67
Vps2 (Vacuolar protein sorting 2),1,-1.48,-0.14,0.49,0.35
Naa60 (N(alpha)-acetyltransferase 60),1,0.26,0.35,0.46,0.28
Grl43a (Gustatory receptor-like 43a),1,-0.79,-1.18,-0.7,-0.49
CG10226,1,0.45,0,0.31,0.13
CG3163,1,0.77,0.72,-1.38,0.84
Rtc1,1,-0.59,0.2,-0.6,1.43
CG4613,1,0.78,-0.4,-1.32,0.36
CG33120,1,-0.24,0.27,-0.65,0.45
TfIIA-L (Transcription factor IIA L),1,0.47,0.71,-0.54,-0.15
isoQC (iso Glutaminyl cyclase),1,0.4,0.46,-0.21,0.03
Sod1 (Superoxide dismutase 1),1,0.31,0.47,1.33,-0.2
Oxp (Oxpecker),1,-0.11,-0.44,0.08,0.47
dre4,1,-0.62,-2.14,-4.44,0.93
CG31347,1,0.31,0.59,-0.94,0.51
Dys (Dystrophin),1,-1.54,0.07,0.69,-0.39
Dys (Dystrophin),2,-0.31,-0.07,0.21,0.04
Dys (Dystrophin),3,1.38,-0.07,0.27,-0.01
Dys (Dystrophin),4,0.25,-0.12,-0.67,0.47
Dys (Dystrophin),5,0.06,-0.09,-0.54,0.32
Dys (Dystrophin),6,0.64,1,-0.87,-0.06
Dys (Dystrophin),7,0.46,0.45,0.42,-0.32
CG9519,1,-0.16,0.13,-0.52,0.41
Grp170 (Grp170 co-chaperone),1,1.04,-0.12,0.36,0.48
CG6006,1,0.38,-0.63,0.44,0.58
CG6006,2,-0.17,0.06,0.57,-0.47
IFT52 (Intraflagellar transport 52),1,0.49,-0.02,1.57,-0.7
CG11581,1,-0.05,-0.22,-1.02,0.26
aqrs (aquarius),1,0.96,-0.06,-0.18,-0.27
Cog1 (Component of oligomeric golgi complex 1),1,-0.14,-0.24,0.29,-1.85
Rrp1 (Recombination repair protein 1),1,-0.48,-0.47,-1.97,0.09
CG32712,1,-0.65,-0.22,-0.28,0.17
CG31861,1,-0.1,-1.24,-0.65,0.89
CG3708,1,0.89,0.35,0.64,-0.12
NijB (Ninjurin B),1,0.26,-0.81,0.47,0.51
mrj,1,-0.37,-0.45,0.39,-0.14
Pi4KIIIalpha (Phosphatidylinositol 4-kinase III alpha),1,-1.14,-1.03,-1.2,-0.09
ND-49L (NADH dehydrogenase (ubiquinone) 49 kDa subunit-like),1,0.5,-1.14,-0.31,0.04
Grl58a (Gustatory receptor-like 58a),1,-0.75,0.49,1.1,0.87
CNBP (CCHC-type zinc finger nucleic acid binding protein),1,0.23,0.92,-0.52,-0.75
CNBP (CCHC-type zinc finger nucleic acid binding protein),2,0.3,-0.01,-0.55,-0.6
CNBP (CCHC-type zinc finger nucleic acid binding protein),3,-0.21,-1.24,0.14,-0.27

6 of these entries in another layout.
gene	reagent no.	replicate 1, z-score of dpERK with insulin	replicate 2, z-score of dpERK with insulin	replicate 1, z-score of dpERK under basal conditions	replicate 1, z-score of ERK-YFP with insulin
CG31347	1	0.31	0.59	-0.94	0.51
Dys (Dystrophin)	1	-1.54	0.07	0.69	-0.39
Dys (Dystrophin)	2	-0.31	-0.07	0.21	0.04
Dys (Dystrophin)	3	1.38	-0.07	0.27	-0.01
Dys (Dystrophin)	4	0.25	-0.12	-0.67	0.47
Dys (Dystrophin)	5	0.06	-0.09	-0.54	0.32
